Reference: article doi:10.1101/2024.02.22.581560
Results are given in words; binding and its absence hold for the method and conditions named. For some assays here: Binding seen in cells or lysates may run through a third protein. Some results given as binding are weak or reduced against the parent protein; the word gives no strength.

Chains of the proteins cited; added tags and fusions are not shown.
UniProt P10275: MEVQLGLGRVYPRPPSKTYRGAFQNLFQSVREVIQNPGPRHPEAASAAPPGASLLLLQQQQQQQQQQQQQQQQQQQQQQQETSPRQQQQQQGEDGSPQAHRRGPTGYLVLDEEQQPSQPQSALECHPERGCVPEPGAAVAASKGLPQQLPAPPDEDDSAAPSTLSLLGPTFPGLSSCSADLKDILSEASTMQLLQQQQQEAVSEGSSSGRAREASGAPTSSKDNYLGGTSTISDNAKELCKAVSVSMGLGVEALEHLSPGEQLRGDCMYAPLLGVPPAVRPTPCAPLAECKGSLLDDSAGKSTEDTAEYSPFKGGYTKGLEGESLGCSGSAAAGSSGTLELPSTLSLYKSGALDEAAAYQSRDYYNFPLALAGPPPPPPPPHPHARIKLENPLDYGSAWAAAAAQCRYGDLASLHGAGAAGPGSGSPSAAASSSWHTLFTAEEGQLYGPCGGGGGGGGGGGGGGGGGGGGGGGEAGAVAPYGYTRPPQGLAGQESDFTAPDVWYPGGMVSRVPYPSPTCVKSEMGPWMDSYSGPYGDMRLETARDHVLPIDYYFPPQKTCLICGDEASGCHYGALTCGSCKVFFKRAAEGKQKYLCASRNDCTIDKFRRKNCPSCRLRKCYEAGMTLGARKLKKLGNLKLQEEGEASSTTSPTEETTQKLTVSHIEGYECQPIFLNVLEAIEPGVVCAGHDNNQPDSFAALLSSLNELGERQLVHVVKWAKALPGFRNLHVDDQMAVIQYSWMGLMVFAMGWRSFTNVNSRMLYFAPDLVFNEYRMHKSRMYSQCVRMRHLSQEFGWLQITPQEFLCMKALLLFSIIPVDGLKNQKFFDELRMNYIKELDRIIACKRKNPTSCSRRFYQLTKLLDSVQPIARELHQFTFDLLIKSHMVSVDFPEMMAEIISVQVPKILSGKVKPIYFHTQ
UniProt O96028: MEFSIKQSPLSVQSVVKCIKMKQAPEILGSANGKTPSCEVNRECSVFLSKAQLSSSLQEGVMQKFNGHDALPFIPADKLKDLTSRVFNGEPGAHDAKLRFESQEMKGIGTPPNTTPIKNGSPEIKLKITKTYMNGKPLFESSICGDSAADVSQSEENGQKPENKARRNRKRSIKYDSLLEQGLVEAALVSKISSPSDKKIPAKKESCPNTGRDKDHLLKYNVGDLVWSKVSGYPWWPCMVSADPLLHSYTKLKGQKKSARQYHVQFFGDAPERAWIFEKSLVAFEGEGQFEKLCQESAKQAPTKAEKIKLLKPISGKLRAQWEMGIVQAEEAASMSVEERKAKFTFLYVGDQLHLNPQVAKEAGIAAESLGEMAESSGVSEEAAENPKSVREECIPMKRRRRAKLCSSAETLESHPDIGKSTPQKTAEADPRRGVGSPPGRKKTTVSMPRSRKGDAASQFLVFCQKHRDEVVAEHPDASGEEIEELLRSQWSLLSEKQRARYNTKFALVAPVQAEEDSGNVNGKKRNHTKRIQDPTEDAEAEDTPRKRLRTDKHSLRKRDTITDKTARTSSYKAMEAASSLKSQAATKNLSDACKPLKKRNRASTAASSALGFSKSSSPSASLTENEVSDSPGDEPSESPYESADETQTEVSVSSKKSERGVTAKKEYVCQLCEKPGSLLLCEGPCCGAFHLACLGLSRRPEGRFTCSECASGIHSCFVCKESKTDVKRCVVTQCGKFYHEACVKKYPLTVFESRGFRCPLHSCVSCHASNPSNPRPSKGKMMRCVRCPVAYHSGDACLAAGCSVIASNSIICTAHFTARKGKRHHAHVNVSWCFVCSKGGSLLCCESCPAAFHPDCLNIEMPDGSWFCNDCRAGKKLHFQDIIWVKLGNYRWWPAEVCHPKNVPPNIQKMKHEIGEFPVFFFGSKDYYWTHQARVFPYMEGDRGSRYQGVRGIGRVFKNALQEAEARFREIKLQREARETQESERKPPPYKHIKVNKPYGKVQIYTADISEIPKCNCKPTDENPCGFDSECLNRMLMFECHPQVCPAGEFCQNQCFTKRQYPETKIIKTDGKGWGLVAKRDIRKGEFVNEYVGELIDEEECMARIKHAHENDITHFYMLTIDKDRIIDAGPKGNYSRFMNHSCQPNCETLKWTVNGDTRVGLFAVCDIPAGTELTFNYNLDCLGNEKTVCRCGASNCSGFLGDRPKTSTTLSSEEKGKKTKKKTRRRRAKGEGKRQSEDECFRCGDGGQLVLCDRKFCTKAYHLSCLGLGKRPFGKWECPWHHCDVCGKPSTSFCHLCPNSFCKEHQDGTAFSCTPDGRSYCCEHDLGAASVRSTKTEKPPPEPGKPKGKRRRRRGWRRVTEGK

What was measured:
[1] = target: androgen receptor (AR) (human (endogenous in LNCaP and other prostate cancer cell lines)) (UniProt P10275); experiment: SEC; nuclear lysate of LNCaP cells on a Superose 6 10/300 GL column, FPLC buffer (20 mM Tris-HCl pH 7.9, 0.1 M KCl, 5 mM MgCl2, 10% glycerol); fractions blotted
[2] = target: androgen receptor (AR) (human (endogenous in LNCaP and other prostate cancer cell lines)) (UniProt P10275); experiment: co-IP; endogenous AR immunoprecipitated with an antibody and protein G Dynabeads from lysates of prostate cancer cells; washes with 300 mM NaCl; immunoblot

binding [1]: binds
binding [2]: binds
Substance: Nuclear Receptor Binding SET Domain Protein 2 (NSD2) (from UniProt O96028 1-1365)
